Laboratory results reported in patent US10357486B2, “Treatment of cognitive impairment with PDE4 inhibitor” (Universiteit Maastricht, priority 2013, dated 2019).

Key:
[1] = tested on: scopolamine induced memory deficit in male Wistar rats; assay: Object recognition task (ORT), scopolamine induced memory deficit; assay type: in vivo; settings: mean (SEM); for e1 (exploration time T1): 30 min before T1, n 16; for e2 (exploration time T2): 1 h retention
Excerpt: The objective of this study is to evaluate the efficacious dose range of roflumilast with regard to cognitive improvement effects by using scopolamine induced memory deficit on object memory performance in male Wistar rats. Memory acquisition processes are investigated using the object recognition test (ORT).
Maintenance of Animals: Sixteen 3-4 month old male Wistar rats (Charles River, Sulzfeld, Germany) were used for the study. All animals were housed individually in standard green line Tecniplast IVC cages on stardust bedding. The animals were housed on a reversed 12/12 h light/dark cycle (lights on from 07:00 pm to 07:00 am) and had free access to food and water. The rats were housed and tested in the same room. A radio, playing softly, provided background noise in the room. All testing was performed between 09:00 am and 06:00 pm.
Preparation of Compounds: Drugs were prepared daily, except as indicated otherwise. Roflumilast (Takeda, Konstanz, Germany, MW 403.21) was dissolved in 98% methylcellulose solution (0.5% methylcellulose) and 2% Tween 80. Roflumilast in doses of 0 (vehicle), 0.0001, 0.0003, 0.001, 0.003, 0.01 and 0.03 mg/kg was administered intraperitoneally (ip, injection volume 1 ml/kg). Scopolamine (in form of scopolamine hydrobromide) was dissolved in saline (0.9% NaCl). Scopolamine hydrobromide was administered intraperitoneally at a dose of 0.1 mg/kg (ip, injection volume 1 ml/kg). Scopolamine and roflumilast were administered 30 min before T1.
Object Recognition Task in Rats: The ORT was performed as described elsewhere (Ennaceur and Delaceur, 1988, Behav Brain Res, Vol 31, pp 47-59; Akkerman et al; 2012, Behav Brain Res, Vol 232, pp 335-347). The apparatus consisted of a circular arena, 83 cm in diameter. The back half of the 40 cm high wall was made of grey PVC and the front was made of transparent PVC. Fluorescent red tubes and a light bulb provided a constant illumination of about 20 lux on the floor of the apparatus. The light intensity was equal in the different parts of the apparatus.
Two objects were placed in symmetrical positions at the mid-line between the gray and transparent halves of the arena, about ten centimeters away from wall. Four different sets of objects were available: 1) a standard 1 L brown transparent glass bottle (diameter 10 cm, height 22 cm) filled with water, 2) a metal cube (10.0×5.0×7.5 cm) with two holes (diameter 1.9 cm), 3) a cone consisting of a gray PVC base (maximal diameter 18 cm) with a collar on top made of brass (total height 16 cm), and 4) an aluminium cube with a tapering top (13.0×8.0×8.0 cm). Objects were presented to the animals in a balanced manner to avoid object or place biases. Rats were unable to displace the objects.
A test session comprised two trials, each with durations of 3 min. During the learning trial (T1) the apparatus contains two identical objects (object al and a2). Rats were always introduced into the apparatus with their nose towards the transparent wall segment (i.e. facing outwards to the front of the arena). Subsequently, rats were put back in its home cage for a 1 h interval. After the retention interval, rats were put back into the arena for the […] (T2). In T2, the two objects from T1 were replaced by one identical copy (a3) and a different novel object (b). The times spent in exploring each object during T1 and T2 were recorded manually on a personal computer.
Exploration was defined in the following manner: directing the nose to the object at a distance of no more than 2 cm and/or touching the object with the nose. Sitting on the object was not considered as exploratory behavior. In order to avoid the presence of olfactory cues, the objects were thoroughly cleaned with a 70% ethanol solution before each trial.
Prior to compound testing, the animals were handled for 5 min on 2 consecutive days and allowed to explore the ORT arena, also for 5 min. […]

[2] = tested on: spatial memory in male C57BL/6NCrl mice; assay: Object Location Task (OLT), 24-hour retention interval; assay type: in vivo; settings: given 3 hours after T1, mean (SEM); for e2, total exploration time during T2: T2 after 24 h
Excerpt: The objective of this study was to evaluate the cognitive improvement effects of Roflumilast on spatial memory employing Object Location Task (OLT) in male C57BL/6NCrl mice. Roflumilast was compared with data of the already established PDE4 inhibitor Rolipram in the same model.
Maintenance of Animals Twenty-four 7 month-old male C57BL/6NCrl mice (Charles River, L'Arbresle, France) were used (average body weights: 27.6 g). The animals were kept under a 12/12-hour light/dark cycle (lights on from 07.00 pm to 07.00 am) with free access to food and water. All testing was done between 09.00 am and maximally 06.00 pm.
Preparation of Compounds for Administration Both rolipram (Sigma-Aldrich St. Louis, USA; MW 275.34) and roflumilast (Biocrea, Radebeul, Germany; MW 403.21) were dissolved in dimethylsulfoxide (DMSO) and kept at 4 ° C.; this stock solution was used for further dilutions in 0.5% methylcellulose. Each of rolipram and roflumilast is used in form of its free base. All injected solutions consisted of 0.5% methylcellulose with a fixed DMSO percentages (1.2%) (vehicle).
Object Location Task Studies in Rodents For the Object Location Task (OLT), doses of 0.01 mg/kg, 0.03 mg/kg and 0.1 mg/kg of Rolipram or Roflumilast or vehicle were administered subcutaneously (s.c.). Based on previous findings, PDE4 inhibitor single administration was performed 3 hours after the first trial as this has an optimum effect on object memory performance. The injection volume was 5 μl/g.
The OLT apparatus consisted of a circular arena, 40 cm in diameter. Half of the 40 cm transparent polyvinyl chloride wall was covered from the outside with white paper. Two objects were placed symmetrically about 10 cm away from the wall on the separation line, between the transparent and covered side of the arena. Four different sets of objects were available: (1) a cone made of brass (maximal diameter 6 cm and total height 3.8 cm), (2) a transparent glass bottle (diameter 2.7 cm, height 8.5 cm) filled with sand and water, (3) a massive metal cube (2.5 cm×5 cm×7.5 cm) with two holes (diameter 1.5 cm), and (4) a massive aluminum cube with a tapering top (4.5 cm×4.5 cm×8.5 cm).
A testing session comprised two trials of 4 minutes. Before each trial, mice were placed in an empty Makrolon cage (incubation cage) for the same amount of time as the trial (4 min). During the first trial (T1), two identical objects were placed symmetrically about 10 cm away from the wall on the separation line between the transparent and covered side of the arena. After the first exploration period of 4 min, the mouse was put back in its home cage. Mice then received treatment at 3 hours post T1. Subsequently, after a predetermined delay interval (24h), the mouse was placed in the apparatus for the second trial of 4 min (T2). Two identical objects as in T1 were used; one object was placed in the previously used position, whereas the other was placed in a novel position. The novel position of the object could either be a fixed distance towards the front or a fixed distance towards the back of the arena for both objects. The times spent exploring each object during T1 and T2 were recorded manually using a personal computer. All objects and locations were used in a balanced manner to exclude possible object and/or location preferences. To avoid olfactory cues, the objects were thoroughly cleaned with 70% ethanol after each trial. The testing order of conditions was determined randomly.
Statistical Data Analysis The measurements reflected the time spent by the mice in exploring each object during T1 and T2. The time spent in exploring the two identical samples in T1 were represented by ‘a1’ and ‘a2’, respectively. The time spent in exploring the sample and the new object in T2 were represented by ‘a’ and ‘b’, respectively. From these exploration times the following variables were calculated: e1, e2, and d2 (Table 1). The d2 index is a relative measure of discrimination corrected for exploratory activity. […]

[3] = roflumilast 0.0001 mg/kg ip + scopolamine 0.1 mg/kg ip
[4] = roflumilast 0.0003 mg/kg ip + scopolamine 0.1 mg/kg ip
[5] = roflumilast 0.001 mg/kg ip + scopolamine 0.1 mg/kg ip
[6] = roflumilast 0.003 mg/kg ip + scopolamine 0.1 mg/kg ip
[7] = roflumilast 0.01 mg/kg ip + scopolamine 0.1 mg/kg ip
[8] = roflumilast 0.03 mg/kg ip + scopolamine 0.1 mg/kg ip
[9] = scopolamine 0.1 mg/kg ip + vehicle

Row | Structure (SMILES) | e1 (exploration time T1) [1, 3] | e2 (exploration time T2) [1, 3] | e1 (exploration time T1) [1, 4] | e2 (exploration time T2) [1, 4] | e1 (exploration time T1) [1, 5] | e2 (exploration time T2) [1, 5] | e1 (exploration time T1) [1, 6] | e2 (exploration time T2) [1, 6] | e1 (exploration time T1) [1, 7] | e2 (exploration time T2) [1, 7] | e1 (exploration time T1) [1, 8] | e2 (exploration time T2) [1, 8] | e2, total exploration time during T2 ([2]; 0.01 mg/kg s.c.) | e1, total exploration time during T1 ([2]; 0.01 mg/kg s.c.) | e2, total exploration time during T2 ([2]; 0.03 mg/kg s.c.) | e1, total exploration time during T1 ([2]; 0.03 mg/kg s.c.) | e2, total exploration time during T2 ([2]; 0.1 mg/kg s.c.) | e1, total exploration time during T1 ([2]; 0.1 mg/kg s.c.) | e1 (exploration time T1) [1, 9] | e2 (exploration time T2) [1, 9]
1 | O=C(Nc1c(Cl)cncc1Cl)c1ccc(OC(F)F)c(OCC2CC2)c1 [roflumilast, N-(3,5-dichloropyridin-4-yl)-3-cyclopropylmethoxy-4-difluoromethoxybenzamide] | 24.18 (1.56) sec | 28.13 (2.17) sec | 19.40 (1.62) sec | 24.10 (1.88) sec | 19.95 (1.38) sec | 22.88 (2.14) sec | 22.38 (1.09) sec | 23.94 (1.28) sec | 22.54 (1.63) sec | 27.20 (1.72) sec | 20.44 (1.64) sec | 26.10 (2.06) sec | 14.13 (1.22) s | 15.95 (1.11) s | 16.13 (1.18) s | 15.62 (1.37) s | 13.73 (1.11) s | 17.51 (1.36) s |  | 
2 | COc1ccc(C2CNC(=O)C2)cc1OC1CCCC1 (centres unmarked) [rolipram] |  |  |  |  |  |  |  |  |  |  |  |  | 12.99 (0.84) s | 15.58 (0.95) s | 13.56 (0.95) s | 15.45 (1.35) s | 12.29 (0.08) s | 15.82 (1.03) s |  | 
3 | CN1[C@@H]2C[C@@H](OC(=O)[C@H](CO)c3ccccc3)C[C@H]1[C@@H]1O[C@@H]12 [scopolamine] |  |  |  |  |  |  |  |  |  |  |  |  |  |  |  |  |  |  | 20.99 (2.17) sec | 25.03 (2.18) sec
